Article doi:10.1101/2021.12.10.472131 (bioRxiv, 2021)
These are yes or no findings as the source states them, for the method shown. A result given as binding can be weak or reduced; the word gives no strength. For some of these results: Tags and fused reporters may be left off the sequences shown.

T1: Par-3 PDZ1-APM (residues 309-987) (UniProt O96782)
T1 sequence: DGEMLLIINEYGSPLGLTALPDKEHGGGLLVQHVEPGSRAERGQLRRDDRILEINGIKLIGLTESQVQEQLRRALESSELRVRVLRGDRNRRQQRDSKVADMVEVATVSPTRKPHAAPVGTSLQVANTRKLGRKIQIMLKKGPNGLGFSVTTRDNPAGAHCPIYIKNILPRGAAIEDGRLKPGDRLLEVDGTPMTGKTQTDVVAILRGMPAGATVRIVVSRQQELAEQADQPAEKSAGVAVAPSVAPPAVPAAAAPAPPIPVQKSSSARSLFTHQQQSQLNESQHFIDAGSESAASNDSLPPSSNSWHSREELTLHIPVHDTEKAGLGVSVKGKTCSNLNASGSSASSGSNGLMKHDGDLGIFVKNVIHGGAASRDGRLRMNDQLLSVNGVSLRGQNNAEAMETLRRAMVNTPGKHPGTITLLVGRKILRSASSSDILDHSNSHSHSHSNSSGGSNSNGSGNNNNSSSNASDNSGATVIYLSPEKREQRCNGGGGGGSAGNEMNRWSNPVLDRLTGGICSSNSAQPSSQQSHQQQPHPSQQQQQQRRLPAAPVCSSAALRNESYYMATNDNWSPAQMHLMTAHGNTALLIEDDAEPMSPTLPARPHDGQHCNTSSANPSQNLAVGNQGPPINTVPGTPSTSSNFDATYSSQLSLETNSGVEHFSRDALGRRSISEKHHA


Legend:
Test in all cases: supernatant depletion assay
[1] = molecular target: T1, Par-3 PDZ1-APM (residues 309-987)
Par-3 BR-PDZ2-3 = molecular target: Par-3 BR-PDZ2-3
Par-3 PDZ1-2 = molecular target: Par-3 PDZ1-2
Par-3 PDZ2-3 = molecular target: Par-3 PDZ2-3

binding [1]	binding (Par-3 BR-PDZ2-3)	binding (Par-3 PDZ1-2)	binding (Par-3 PDZ2-3)	Molecule
binds	–	–	–	Par complex lacking the Par-6 PBM
–	binds	binds	binds	his aPKC kinase domain-PBM (residues 259-606) (domain or fragment, UniProt A1Z9X0 259-606, looked up) YSLNDFELIRVIGRGSYAKVLMVELRRTRRIYAMKVIKKALVTDDEDIDWVQTEKHVFETASNHPFLVGLHSCFQTPSRLFFVIEFVRGGDLMYHMQRQRRLPEEHARFYAAEISLALNFLHEKGIIYRDLKLDNVLLDHEGHIKLTDYGMCKEGIRPGDTTSTFCGTPNYIAPEILRGEDYGFSVDWWALGVLLYEMLAGRSPFDLAGASENPDQNTEDYLFQVILEKTIRIPRSLSVRAASVLKGFLNKNPADRLGCHRESAFMDIVSHPFFKNMDWELLERKQVTPPFKPRLDSDRDLANFPPEFTGEAVQLTPDDDHVIDNIDQSEFEGFEYVNPLLMSLEDCV
